These are yes or no findings as the source states them, for the method shown. In cells and extracts the contact can be indirect. Some entries that bind do so weakly or less than the wild type. Where a sequence is shown, tags or fusion partners need not be part of it.

Amino acid sequences for entries named in this document (tags omitted).
UniProt O75838: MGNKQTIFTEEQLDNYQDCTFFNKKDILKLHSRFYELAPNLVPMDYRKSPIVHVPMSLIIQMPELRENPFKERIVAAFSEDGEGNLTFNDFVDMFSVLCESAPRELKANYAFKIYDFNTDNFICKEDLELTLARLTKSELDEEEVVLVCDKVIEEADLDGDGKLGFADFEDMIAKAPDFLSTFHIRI

This assay addresses T1, human ANO1 (TMEM16A; cDNA clone IMAGE:4837404, 695 amino acids) with an HA-tag (human) (UniProt Q5XXA6).
T1 sequence: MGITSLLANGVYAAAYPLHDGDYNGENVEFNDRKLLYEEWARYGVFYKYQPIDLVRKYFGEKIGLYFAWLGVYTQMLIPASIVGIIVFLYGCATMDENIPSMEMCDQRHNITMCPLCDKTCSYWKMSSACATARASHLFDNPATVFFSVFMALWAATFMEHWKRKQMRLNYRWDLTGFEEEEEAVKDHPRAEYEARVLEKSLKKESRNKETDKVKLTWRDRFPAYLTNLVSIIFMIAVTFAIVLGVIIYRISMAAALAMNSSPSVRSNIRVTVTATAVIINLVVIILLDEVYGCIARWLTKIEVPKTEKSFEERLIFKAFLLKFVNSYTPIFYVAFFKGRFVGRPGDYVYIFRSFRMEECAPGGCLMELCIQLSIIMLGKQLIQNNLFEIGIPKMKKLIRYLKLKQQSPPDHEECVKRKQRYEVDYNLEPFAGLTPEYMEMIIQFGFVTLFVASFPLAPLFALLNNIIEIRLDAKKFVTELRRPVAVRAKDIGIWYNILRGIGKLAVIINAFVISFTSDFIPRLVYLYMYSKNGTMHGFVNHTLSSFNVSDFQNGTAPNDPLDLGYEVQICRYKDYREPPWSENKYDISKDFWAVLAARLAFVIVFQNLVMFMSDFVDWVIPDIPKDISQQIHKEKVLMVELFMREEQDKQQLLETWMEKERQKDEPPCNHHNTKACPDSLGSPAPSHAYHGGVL
Briefly: co-IP; transfected HEK293T cells lysed in TAP buffer (20 mM Tris-HCl pH 7.5, 150 mM NaCl, 0.5% NP-40, 1 mM EDTA); supernatant incubated with anti-HA agarose affinity gel 4 h at 4 °C; beads washed 3 times with TAP buffer; SDS-PAGE and immunoblot. On the technique in general: In western blotting, separated proteins are transferred to a membrane and probed.

With human CIB2 (from UniProt O75838 1-187), the binding result is listed as “binds”.

These data come from paper PMC11830769.
